Assay results taken from paper PMC5770610, “Structure and function of urea amidolyase” (Bioscience Reports, 2018).
Results are given in words; binding and its absence hold for the method and conditions named. For some assays here: Tags and fused reporters may be left off the sequences shown.

T1: Kluyveromyces lactis allophanate hydrolase (isolated AH part of KlUA) (Kluyveromyces lactis) (UniProt Q6CP22)
T1 sequence: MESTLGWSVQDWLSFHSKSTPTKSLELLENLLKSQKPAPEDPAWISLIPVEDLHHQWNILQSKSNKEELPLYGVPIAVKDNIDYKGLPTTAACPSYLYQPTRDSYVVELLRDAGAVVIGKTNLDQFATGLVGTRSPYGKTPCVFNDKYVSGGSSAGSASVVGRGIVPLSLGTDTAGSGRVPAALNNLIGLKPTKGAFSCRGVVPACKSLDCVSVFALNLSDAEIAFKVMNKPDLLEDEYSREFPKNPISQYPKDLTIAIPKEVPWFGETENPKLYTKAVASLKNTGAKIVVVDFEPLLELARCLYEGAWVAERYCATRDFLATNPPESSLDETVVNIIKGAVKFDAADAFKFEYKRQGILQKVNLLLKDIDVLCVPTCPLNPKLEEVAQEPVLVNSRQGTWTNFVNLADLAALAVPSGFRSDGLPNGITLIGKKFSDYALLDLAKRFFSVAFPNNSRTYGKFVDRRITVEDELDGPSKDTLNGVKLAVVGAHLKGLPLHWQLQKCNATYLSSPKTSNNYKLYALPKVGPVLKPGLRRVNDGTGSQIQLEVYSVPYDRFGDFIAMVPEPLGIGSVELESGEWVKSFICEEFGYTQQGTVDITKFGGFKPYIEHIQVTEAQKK

B1: Kluyveromyces lactis urea carboxylase (isolated UC part of KlUA) (domain or fragment, UniProt Q6CP22 617-1829)
chain: EAQKKKPFETVLIANRGEIAVRIMKTLKRMGIKSVAVYSDPDKYSQHVTDADFSVALHGRTAAETYLDIDKIINAAKKTGAQAIIPGYGFLSENADFSDRCSQENIVFVGPSGDAIRKLGLKHSAREIAERAKVPLVPGSGLIKDAKEAKEVAKKLEYPVMVKSTAGGGGIGLQKVDSEDDIERVFETVQHQGKSYFGDAGVFMERFVNNARHVEIQMMGDGFGKAIAIGERDCSLQRRNQKVIEETPAPNLPEATRAKMRAASERLGSLLKYKCAGTVEFIYDEQRDEFYFLEVNARLQVEHPITEMVTGLDLVEWMLRIAANDSPDFDNTKIEVSGASIEARLYAENPVKDFRPSPGQLTSVSFPSWARVDTWVKKGTNVSAEYDPTLAKIIVHGKDRNDAIMKLNQALNETAVYGCITNIDYLRSIASSKMFKEAKVATKVLDSFDYKPCAFEVLAPGANTSVQDYPGRTGYWRIGVPPSGPMDSYSFRLANRVVGNNSKSPALEITLNGPKLLFHTETVIAVSGGTVSCTLNDAQIAQNEPIEVKRGDILSVGKVTVGCRAYLSIRGGIDVPEYLGSRSTFAMGNMGGYNGRILKLGDVLFLNQPELSVSSLPAPDFEPQAAPKSLLPTLSTNKDWKIGVTCGPHGSIDLFKEEYIEQFFNDKWKVHYNSNRFGVRLIGPKPKWARSDGGEAGLHPSNAHDYVYSLGAINFTGDEPVIITCDGPSLGGFVCQAVVAEAELWKVGQLTPGDTIQFVPLSYGVARQLKESQDKSIDNFEEGSLLELSDDKILPKYENPILAVLPKKSDLSPKVTYRQAGDRYILVEYGELEFDLNICYRINRLIHQVERHQTVGIVEMSQGVRSVLIEFDGSKINQKALLKCLIAYESEIQFDKNWNVKSKIFKLPMAFEDSKTLDCVTRYRETIRSEAPWLPNNVDFIADVNDIDRNDVKNMLYSAKFMVLGLGDVFLGSPCAVPLDPRHRYLGTKYNPSRTYTARGVVGIGGMYMCIYNAEGSPGGYQLVGRTITAWDKLVIGDHPIDHPWLLTPFDQVEFYPVTEEELEVIIEDNDNGKFKIDVEESIFDHKEYLAWINENIDSIVAFQEAQGGEKADEFARLIQVANAELKKSGDDKPQDVEEYPDDAELLYSEYTGRFWKPVAAVGDHVEAGDGVIIIEAMKTEMVVGATKSGKVYKILHKNGDMVEAGDLVAVIV

Columns and labels:
[1] = target: KlUA G559E/G572E mutant (Kluyveromyces lactis) (UniProt Q6CP22); assay: SEC; analytical gel filtration, Superose 6 HR column; 0.25 mg protein injected; 20 mM Tris/HCl pH 8.0, 200 mM NaCl; calibrated with standards of 29-669 kDa; both purified
[2] = target: T1, Kluyveromyces lactis allophanate hydrolase (isolated AH part of KlUA) (Kluyveromyces lactis); assay: as above

Molecule | binding [1] | binding [2]
KlUA G559E/G572E mutant (from UniProt Q6CP22 1-1829) (enzyme) | no binding (tested: 0.25 mg of protein injected) | 
B1 |  | no binding (tested: 0.25 mg of protein injected)
